In paper PMC12209172, “Poly(ADP-ribose)polymerase 2 is zinc-dependent enzyme and nucleosome reorganizer” (Cellular and Molecular Life Sciences: CMLS, 2025):
“And” between values parts separate entries of the source, which are not always exact repeats. Identical values can stand only once. The source gives many values for each of these; only a part stands here.

Protein sequences, listed by entry. Tags and fused reporters are not part of them. Residues count along the entry.
UniProt Q9UGN5, 77-220: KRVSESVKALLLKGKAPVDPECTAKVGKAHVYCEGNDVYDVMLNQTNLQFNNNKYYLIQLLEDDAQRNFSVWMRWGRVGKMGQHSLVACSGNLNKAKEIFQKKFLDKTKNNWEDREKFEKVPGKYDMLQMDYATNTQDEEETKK

Target: T1, WGR domain of PARP2 (Homo sapiens, UniProt Q9UGN5)
T1 construct: WGR domain of PARP2 (residues 77–220) into pET-15b-TEV expression vector; 6xHis (pET-15b-TEV) (N, cleaved yes); made in house; host or cells: Escherichia coli Rosetta2 (DE3) pLysS
Experiment: Tryptophan fluorescence spectroscopy of the WGR domain titrated with divalent cations (one site binding fit)
Conditions: listed as Zn
Method: Fluorescence spectra of Trp residues were measured in the 300–450 nm spectral range at the 270 nm excitation wavelengths using the Cary Eclipse spectrofluorometer (Varian/Agilent, USA).
Fluorescence of WGR domain was measured at 0.5 or 5 µM in a buffer containing 10 mM HEPES (pH 8.0), 150 mM NaCl and 0.73 or 7.3 µM EDTA, respectively. Solutions were complemented with ZnCl2 (0.2–308 µM) or MgCl2 (15–5000 µM), or CaCl2 (8–5000 µM) dissolved in a buffer containing 10 mM HEPES (pH 8.0), 150 mM NaCl. Intensity of the measured spectra was corrected for the concomitant dilution of the WGR domain. Integral intensities (Ifl.) of fluorescence spectra were averaged over three independent measurements (mean ± SEM) and used to plot the corresponding Ifl. vs. ion concentration graphs. Data were fitted with the one site binding equation:2 [drawing 2]
Where C is the concentration of divalent cations, Kd is a dissociation constant of the complex, Im and Ifl0 are maximal and initial values of Ifl., respectively.

For `[Cl-].[Cl-].[Zn+2]` [Zn2+, ZnCl2], the “fluorescence intensity (Fig 3d)” value (wavelength 364.000, 5.9 uM Zn) was 55.842 and 63.694 and 78.194 and 61.247, the “fluorescence intensity (Fig 3d)” value (wavelength 364.000, 11.6 uM Zn) was 106.791 and 92.289 and 92.670 and 97.945 and the “fluorescence intensity (Fig 3d)” value (wavelength 364.000, 17.2 uM) was 113.092 and 103.179 and 104.413 and 102.691. The “fluorescence intensity (Fig 3d)” value (wavelength 364.000, 22.1 uM) was 113.488 and 104.841 and 105.132 and 105.276, the “fluorescence intensity (Fig 3d)” value (wavelength 364.000, 303 uM + 7 mM EDTA) was 37.492 and 46.461 and 37.501 and 45.070 and the “fluorescence intensity (Fig 3d)” value (wavelength 364.000, 308 uM) was 112.175 and 106.509 and 106.375 and 103.893. For the same molecule, the “fluorescence intensity (Fig 3d)” value (wavelength 365.070, 5.9 uM Zn) was 54.955 and 61.338 and 74.965 and 59.497, the “fluorescence intensity (Fig 3d)” value (wavelength 365.070, 11.6 uM Zn) was 104.136 and 89.456 and 89.683 and 95.341 and the “fluorescence intensity (Fig 3d)” value (wavelength 365.070, 17.2 uM) was 110.307 and 100.251 and 101.917 and 100.027. The “fluorescence intensity (Fig 3d)” value (wavelength 365.070, 22.1 uM) was 110.796 and 102.299 and 101.756 and 101.715, the “fluorescence intensity (Fig 3d)” value (wavelength 365.070, 303 uM + 7 mM EDTA) was 35.110 and 45.130 and 35.661 and 44.035 and the “fluorescence intensity (Fig 3d)” value (wavelength 365.070, 308 uM) was 108.197 and 103.928 and 103.206 and 100.909. The “fluorescence intensity (Fig 3d)” value (wavelength 366.000, 5.9 uM Zn) was 53.867 and 59.723 and 72.971 and 57.784, the “fluorescence intensity (Fig 3d)” value (wavelength 366.000, 11.6 uM Zn) was 100.645 and 88.354 and 88.422 and 93.471 and the “fluorescence intensity (Fig 3d)” value (wavelength 366.000, 17.2 uM) was 107.019 and 98.799 and 99.204 and 97.652. The “fluorescence intensity (Fig 3d)” value (wavelength 366.000, 22.1 uM) was 108.704 and 99.404 and 99.865 and 99.157, the “fluorescence intensity (Fig 3d)” value (wavelength 366.000, 303 uM + 7 mM EDTA) was 34.807 and 43.986 and 34.907 and 42.375 and the “fluorescence intensity (Fig 3d)” value (wavelength 366.000, 308 uM) was 106.012 and 100.547 and 101.530 and 98.114. For the same molecule, the “fluorescence intensity (Fig 3d)” value (wavelength 367.070, 5.9 uM Zn) was 51.819 and 58.334 and 71.068 and 56.021, the “fluorescence intensity (Fig 3d)” value (wavelength 367.070, 11.6 uM Zn) was 98.706 and 86.060 and 85.557 and 90.394 and the “fluorescence intensity (Fig 3d)” value (wavelength 367.070, 17.2 uM) was 103.457 and 95.096 and 97.047 and 94.565. For the same molecule, the “fluorescence intensity (Fig 3d)” value (wavelength 367.070, 22.1 uM) was 105.216 and 96.039 and 95.703 and 97.201, the “fluorescence intensity (Fig 3d)” value (wavelength 367.070, 303 uM + 7 mM EDTA) was 34.256 and 42.714 and 33.429 and 41.689 and the “fluorescence intensity (Fig 3d)” value (wavelength 367.070, 308 uM) was 103.828 and 97.312 and 98.484 and 95.045. For the same molecule, the “fluorescence intensity (Fig 3d)” value (wavelength 368.000, 5.9 uM Zn) was 50.092 and 56.980 and 71.200 and 54.944, the “fluorescence intensity (Fig 3d)” value (wavelength 368.000, 11.6 uM Zn) was 96.231 and 82.386 and 83.993 and 88.873 and the “fluorescence intensity (Fig 3d)” value (wavelength 368.000, 17.2 uM) was 102.342 and 94.195 and 94.248 and 92.711. The “fluorescence intensity (Fig 3d)” value (wavelength 368.000, 22.1 uM) was 102.414 and 93.814 and 94.938 and 94.421, the “fluorescence intensity (Fig 3d)” value (wavelength 368.000, 303 uM + 7 mM EDTA) was 32.566 and 42.293 and 33.042 and 40.042 and the “fluorescence intensity (Fig 3d)” value (wavelength 368.000, 308 uM) was 100.281 and 95.437 and 95.362 and 92.778. The “fluorescence intensity (Fig 3d)” value (wavelength 369.070, 5.9 uM Zn) was 48.767 and 55.886 and 67.800 and 53.758, the “fluorescence intensity (Fig 3d)” value (wavelength 369.070, 11.6 uM Zn) was 93.083 and 80.678 and 82.299 and 85.537 and the “fluorescence intensity (Fig 3d)” value (wavelength 369.070, 17.2 uM) was 99.189 and 90.714 and 91.053 and 90.436. The “fluorescence intensity (Fig 3d)” value (wavelength 369.070, 22.1 uM) was 99.480 and 91.901 and 93.083 and 90.900, the “fluorescence intensity (Fig 3d)” value (wavelength 369.070, 303 uM + 7 mM EDTA) was 31.700 and 41.718 and 31.989 and 39.210 and the “fluorescence intensity (Fig 3d)” value (wavelength 369.070, 308 uM) was 97.301 and 92.373 and 92.594 and 89.888. The “fluorescence intensity (Fig 3d)” value (wavelength 370.000, 5.9 uM Zn) was 46.922 and 53.760 and 66.161 and 52.466, the “fluorescence intensity (Fig 3d)” value (wavelength 370.000, 11.6 uM Zn) was 91.566 and 79.258 and 79.137 and 83.009 and the “fluorescence intensity (Fig 3d)” value (wavelength 370.000, 17.2 uM) was 96.600 and 88.899 and 88.857 and 87.705. For the same molecule, the “fluorescence intensity (Fig 3d)” value (wavelength 370.000, 22.1 uM) was 97.647 and 88.923 and 88.573 and 88.536, the “fluorescence intensity (Fig 3d)” value (wavelength 370.000, 303 uM + 7 mM EDTA) was 30.437 and 39.805 and 31.516 and 38.807 and the “fluorescence intensity (Fig 3d)” value (wavelength 370.000, 308 uM) was 96.317 and 89.871 and 92.012 and 87.630. The “fluorescence intensity (Fig 3d)” value (wavelength 371.070, 5.9 uM Zn) was 45.256 and 52.757 and 65.250 and 50.197, the “fluorescence intensity (Fig 3d)” value (wavelength 371.070, 11.6 uM Zn) was 88.286 and 76.342 and 75.960 and 80.391 and the “fluorescence intensity (Fig 3d)” value (wavelength 371.070, 17.2 uM) was 93.673 and 85.234 and 86.388 and 85.321. For the same molecule, the “fluorescence intensity (Fig 3d)” value (wavelength 371.070, 22.1 uM) was 95.176 and 86.175 and 87.095 and 85.438, the “fluorescence intensity (Fig 3d)” value (wavelength 371.070, 303 uM + 7 mM EDTA) was 29.985 and 38.466 and 29.835 and 36.743 and the “fluorescence intensity (Fig 3d)” value (wavelength 371.070, 308 uM) was 92.274 and 89.144 and 87.788 and 85.404. For the same molecule, the “fluorescence intensity (Fig 3d)” value (wavelength 372.000, 5.9 uM Zn) was 44.852 and 50.838 and 62.814 and 48.698, the “fluorescence intensity (Fig 3d)” value (wavelength 372.000, 11.6 uM Zn) was 85.541 and 74.150 and 73.759 and 79.157 and the “fluorescence intensity (Fig 3d)” value (wavelength 372.000, 17.2 uM) was 90.804 and 82.897 and 84.869 and 82.380. For the same molecule, the “fluorescence intensity (Fig 3d)” value (wavelength 372.000, 22.1 uM) was 91.352 and 83.179 and 84.544 and 83.448, the “fluorescence intensity (Fig 3d)” value (wavelength 372.000, 303 uM + 7 mM EDTA) was 29.272 and 37.546 and 29.414 and 36.653 and the “fluorescence intensity (Fig 3d)” value (wavelength 372.000, 308 uM) was 89.765 and 84.579 and 85.290 and 83.672. The “fluorescence intensity (Fig 3d)” value (wavelength 373.070, 5.9 uM Zn) was 43.799 and 48.947 and 60.381 and 47.376, the “fluorescence intensity (Fig 3d)” value (wavelength 373.070, 11.6 uM Zn) was 83.369 and 71.298 and 72.330 and 76.425 and the “fluorescence intensity (Fig 3d)” value (wavelength 373.070, 17.2 uM) was 87.109 and 81.029 and 80.298 and 81.359. The “fluorescence intensity (Fig 3d)” value (wavelength 373.070, 22.1 uM) was 88.862 and 81.045 and 81.804 and 81.257, the “fluorescence intensity (Fig 3d)” value (wavelength 373.070, 303 uM + 7 mM EDTA) was 28.015 and 35.858 and 28.555 and 34.992 and the “fluorescence intensity (Fig 3d)” value (wavelength 373.070, 308 uM) was 86.658 and 82.391 and 83.361 and 80.810.
